The record followed here is PMC11109619.

Amino acid sequences for entries named in this document (tags omitted).
UniProt P25490: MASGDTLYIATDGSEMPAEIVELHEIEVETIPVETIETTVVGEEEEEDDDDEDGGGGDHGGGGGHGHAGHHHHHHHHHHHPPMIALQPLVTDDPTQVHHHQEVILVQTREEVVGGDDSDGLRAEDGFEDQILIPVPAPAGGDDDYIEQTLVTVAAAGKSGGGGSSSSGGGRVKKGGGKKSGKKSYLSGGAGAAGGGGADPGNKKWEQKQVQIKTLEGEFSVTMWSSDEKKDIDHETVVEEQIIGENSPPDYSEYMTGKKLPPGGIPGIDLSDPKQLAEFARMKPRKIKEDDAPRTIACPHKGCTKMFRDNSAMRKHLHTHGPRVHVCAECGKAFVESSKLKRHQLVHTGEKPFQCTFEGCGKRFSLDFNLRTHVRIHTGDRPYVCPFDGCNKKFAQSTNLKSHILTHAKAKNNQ
UniProt Q09472: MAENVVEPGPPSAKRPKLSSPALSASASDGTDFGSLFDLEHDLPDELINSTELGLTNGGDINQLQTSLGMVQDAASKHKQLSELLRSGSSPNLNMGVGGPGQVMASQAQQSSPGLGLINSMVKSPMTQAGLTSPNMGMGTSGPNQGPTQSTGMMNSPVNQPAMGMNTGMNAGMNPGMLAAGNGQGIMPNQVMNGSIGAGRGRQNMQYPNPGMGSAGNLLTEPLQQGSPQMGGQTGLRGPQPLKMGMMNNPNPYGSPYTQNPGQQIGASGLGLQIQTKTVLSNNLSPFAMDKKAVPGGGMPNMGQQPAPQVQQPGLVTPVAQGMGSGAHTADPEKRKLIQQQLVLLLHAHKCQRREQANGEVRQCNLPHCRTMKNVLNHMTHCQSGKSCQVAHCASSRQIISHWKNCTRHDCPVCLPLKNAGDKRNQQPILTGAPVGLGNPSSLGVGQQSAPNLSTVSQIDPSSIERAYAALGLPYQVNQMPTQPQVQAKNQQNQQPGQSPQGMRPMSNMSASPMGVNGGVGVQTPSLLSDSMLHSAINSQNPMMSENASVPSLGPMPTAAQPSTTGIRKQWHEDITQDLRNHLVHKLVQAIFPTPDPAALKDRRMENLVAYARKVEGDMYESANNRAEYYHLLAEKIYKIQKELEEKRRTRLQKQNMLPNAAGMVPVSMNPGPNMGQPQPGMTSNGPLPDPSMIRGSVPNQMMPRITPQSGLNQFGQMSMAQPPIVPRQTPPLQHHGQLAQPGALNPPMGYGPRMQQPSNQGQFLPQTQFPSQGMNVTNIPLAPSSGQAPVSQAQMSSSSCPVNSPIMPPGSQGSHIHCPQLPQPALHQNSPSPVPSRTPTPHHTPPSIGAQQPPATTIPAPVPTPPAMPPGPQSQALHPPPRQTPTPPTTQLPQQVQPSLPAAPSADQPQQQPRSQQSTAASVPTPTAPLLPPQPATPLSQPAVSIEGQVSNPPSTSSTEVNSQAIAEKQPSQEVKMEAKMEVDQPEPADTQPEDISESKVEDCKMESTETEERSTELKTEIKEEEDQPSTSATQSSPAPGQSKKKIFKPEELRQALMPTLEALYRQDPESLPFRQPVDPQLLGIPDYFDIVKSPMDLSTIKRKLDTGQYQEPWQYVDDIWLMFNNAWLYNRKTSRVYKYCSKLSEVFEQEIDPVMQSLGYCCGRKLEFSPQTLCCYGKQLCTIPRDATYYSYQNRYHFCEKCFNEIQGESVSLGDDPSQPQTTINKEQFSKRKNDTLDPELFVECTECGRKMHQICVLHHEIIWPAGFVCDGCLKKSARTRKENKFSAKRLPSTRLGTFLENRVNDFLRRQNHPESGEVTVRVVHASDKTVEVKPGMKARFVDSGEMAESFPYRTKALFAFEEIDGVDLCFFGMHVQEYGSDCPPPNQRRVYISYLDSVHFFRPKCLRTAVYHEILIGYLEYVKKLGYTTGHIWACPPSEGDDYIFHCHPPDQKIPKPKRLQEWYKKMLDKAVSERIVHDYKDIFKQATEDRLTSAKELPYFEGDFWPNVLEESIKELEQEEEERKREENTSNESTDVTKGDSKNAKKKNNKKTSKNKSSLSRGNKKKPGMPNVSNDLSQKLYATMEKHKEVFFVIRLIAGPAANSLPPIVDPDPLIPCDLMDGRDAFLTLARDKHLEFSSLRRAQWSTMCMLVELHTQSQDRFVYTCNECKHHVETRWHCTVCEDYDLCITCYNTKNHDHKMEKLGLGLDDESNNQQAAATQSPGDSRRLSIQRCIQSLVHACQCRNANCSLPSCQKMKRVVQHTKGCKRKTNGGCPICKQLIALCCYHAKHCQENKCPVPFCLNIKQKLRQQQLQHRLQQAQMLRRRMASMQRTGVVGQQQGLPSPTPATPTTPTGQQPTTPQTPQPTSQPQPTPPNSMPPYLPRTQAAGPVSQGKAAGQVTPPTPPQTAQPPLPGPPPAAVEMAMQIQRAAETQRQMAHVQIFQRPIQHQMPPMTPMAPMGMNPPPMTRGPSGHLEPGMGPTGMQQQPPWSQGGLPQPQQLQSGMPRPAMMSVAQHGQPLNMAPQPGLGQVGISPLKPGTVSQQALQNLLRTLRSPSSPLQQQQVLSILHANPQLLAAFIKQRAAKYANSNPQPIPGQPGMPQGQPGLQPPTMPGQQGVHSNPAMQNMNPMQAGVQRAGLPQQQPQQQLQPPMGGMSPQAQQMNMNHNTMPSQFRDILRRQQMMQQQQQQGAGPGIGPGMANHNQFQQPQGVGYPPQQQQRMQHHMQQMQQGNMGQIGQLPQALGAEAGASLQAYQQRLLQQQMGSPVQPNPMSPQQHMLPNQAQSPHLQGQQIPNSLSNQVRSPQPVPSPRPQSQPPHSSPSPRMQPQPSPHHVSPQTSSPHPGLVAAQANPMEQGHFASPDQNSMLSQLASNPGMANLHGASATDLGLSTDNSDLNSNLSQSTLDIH

No constants are given. Whether binding was seen depends on the method and setting. Binding seen in cells or lysates may run through a third protein. Some binding calls cover weakened binding; strength is not graded here.

This assay has as its target Yin-Yang 1 (YY1) (human (endogenous in HMC3)) (UniProt P25490). Description: co-IP; HMC3 cells treated with LPS+IFN-γ for 24 h; lysates incubated with antibodies (YY1, Cell Signaling; p300, Santa Cruz) for 12 h at 4 °C, protein A/G beads 2 h, extensive washing; YY1 and p300 detected by Western blotting. For orientation: In western blotting, separated proteins are transferred to a membrane and probed.

As to p300 (from UniProt Q09472 1-2414), the binding result is “binds”.
